# In all, about 330,000 compounds went through this assay and about 1,000 (0.3%) were called active. The inconclusive results got no clear call from the source; some entries with a clear call stand among them for comparison. The call rests on the fitted dose curve; in most records, active means well fitted inhibition curve with a large enough effect; inconclusive means small, poorly fitted or top-dose-only effect; inactive means no such curve, though single readings can be large or run the other way; tested in mouse RAW 264.7 cells. Potencies beside an inconclusive call are fits to weak or partial responses and may not hold up.
# Assay: qHTS for Inhibitors of Cell Surface uPA Generation; further: nearly all actives have a fitted effect of over 55% in size
# Details: cell surface uPA generation assay; series mostly up to 38.3 µM
# Summary of the method: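 Using RAW 264.7 macrophages, the screen measures whether compounds keep cellular ATP up by preventing uPA-driven LF translocation. Treatment lasted 24 h at 37 C, with a final top concentration of 38.3 uM, and luminescence was the readout.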
# Potency means the concentration at half of the fitted maximal effect.
row,SMILES,Potency
1,COc1cc(/C=C2\Oc3cc(O)ccc3C2=O)ccc1O,active: 6.31 µM
2,O=C(CSc1ncnc2nc[nH]c12)c1ccc(Cl)cc1,"inconclusive: 7.94 µM [inhibitor, partial curve, poor fit]"
3,COc1ccc(-n2nc([N+](=O)[O-])c(=NCc3cccnc3)n2O)cc1,"inconclusive: 12.6 µM [inhibitor, partial curve, poor fit]"
4,O=c1[nH]c2cnn(-c3ccccc3)c2c(=O)n1O,inactive
5,COc1ccccc1C(=O)CC(=O)C(=O)Nc1cccc([N+](=O)[O-])c1C,"inconclusive: 7.94 µM [inhibitor, single point]"
6,CC(=O)Nc1cc(C(C)C)c(O)c(C(C)C)c1,inactive
7,COc1cc(-c2noc(C)c2C#Cc2ccsc2)cc(OC)c1OC,active: 2 µM
8,CN1CCCCC1CCN1c2ccccc2Sc2ccc(S(C)=O)cc21 (stereo unspecified),"inconclusive: 10 µM [inhibitor, single point]"
9,Cc1onc(-c2ccccc2)c1C(=O)O/N=C(\N)c1ccc([N+](=O)[O-])o1,active: 4.47 µM
10,Cc1ccc(-c2nc(NC(=O)c3nn(C)cc3[N+](=O)[O-])sc2C)cc1,"inconclusive: 31.6 µM [inhibitor, partial curve, poor fit]"
11,COc1cc(CCC(=O)OCC(=O)c2ccc[nH]2)cc(OC)c1OC,"inconclusive: 0.562 µM [inhibitor, partial curve, poor fit]"
12,CCOc1ccc2nc(N/C(N)=N/C(=S)Nc3cccc(OC)c3)nc(C)c2c1,inactive
13,CN(CCCNC(=O)c1ccccc1F)CCCNC(=O)c1ccccc1F,inactive
14,Cc1ccc(NCc2ccccc2OCc2ccccc2F)cc1,inactive
15,COC(=O)[C@@H]1C[C@H]1[C@@H](NC(=O)c1ccccc1)c1ccccc1,"inconclusive: 10 µM [inhibitor, partial curve, poor fit]"
16,COc1cc(/C=N/NS(=O)(=O)c2ccc3ccccc3c2)ccc1OCc1ccc(C(=O)O)cc1,inactive
17,COc1ccc([C@H]2CC(=O)C=C(c3ccc(O)cc3)C2)cc1OC,"inconclusive: 12.6 µM [inhibitor, single point]"
18,Cc1ccccc1-c1noc(-c2ccccc2C(=O)N2CCCC2)n1,inactive
19,O=C(Oc1cccccc1=O)c1ccccc1,"inconclusive: 28.2 µM [inhibitor, single point]"
20,O=C(NCC(=O)N(CC1CCCO1)C(C(=O)NC1CCCCC1)c1cccnc1)c1cccs1 (stereo unspecified),inactive
21,COc1ccc(NC(=O)Nc2ccccc2OC)cc1,inactive
22,CCO[C@@H]1OC(C(=O)NCc2ccccc2)=C[C@H](c2ccc(C(F)(F)F)cc2)[C@H]1CCCO,"inconclusive: 31.6 µM [inhibitor, partial curve, poor fit]"
23,C[C@H]1CCC[C@]2(C)C[C@H]3OC(=O)C(CN4CCCCCC4)[C@H]3C=C12 (stereo partly specified),"inconclusive: 8.91 µM [inhibitor, partial curve, poor fit]"
24,COc1ccc(-c2cc(C(=O)N(C)CC(=O)Nc3ccccc3C(F)(F)F)c3ccccc3n2)cc1OC,inactive

row,SMILES,Potency
1,Cc1ccnc(Nc2nc3ccccc3o2)n1,"inconclusive: 5.01 µM [inhibitor, partial curve, poor fit]"
2,O=C(NCC(c1ccco1)N1CCN(c2ccccc2F)CC1)c1ccc2c(c1)OCO2 (stereo unspecified),"inconclusive: 12.6 µM [inhibitor, single point]"
3,Cc1ccnc(NS(=O)(=O)c2ccc(NC(=O)CN3C(=O)c4ccccc4S3(=O)=O)cc2)n1,inactive
4,Cc1c([N+](=O)[O-])cnc(Sc2ccccc2)c1[N+](=O)[O-],active: 8.91 µM
5,CC(=O)Nc1ccc(/C(C)=N/Nc2nc(Nc3cccc4ccccc34)nc(N3CCOCC3)n2)cc1,inactive
6,Cc1cc(C)c2cc(C)c(SCC(=O)NCc3ccco3)nc2c1,"inconclusive: 10 µM [inhibitor, partial curve, poor fit]"
7,CCN(CC)c1ccc(C(=C2C=CC(=[N+](CC)CC)C=C2)c2ccc(N(CC)CC)cc2)cc1,"inconclusive: 1.26 µM [inhibitor, full curve, poor fit]"
8,C[C@H](NC(=O)c1nc[nH]c1C(=O)N[C@@H](Cc1ccccc1)C(=O)OCc1ccccc1)c1ccccc1,inactive
9,Nc1nc(CSC(=S)N2CCN(c3ccccc3)CC2)nc(Nc2ccccc2)n1,inactive
10,CC1CCC2(CC1)NC(=O)N(NC(=O)c1cccc(N(C)C)c1)C2=O (stereo unspecified),"inconclusive: 0.708 µM [inhibitor, full curve, poor fit]"
11,CCCc1cc(=O)[nH]c(SCC(=O)N2CC3(C)CC2CC(C)(C)C3)n1 (stereo unspecified),inactive
12,COc1cc(/C=N/NC(=O)Cc2csc(N3CCOCC3)n2)cc(OC)c1O,"inconclusive: 10 µM [inhibitor, single point]"
13,COc1ccc(/C=N/NC(=O)c2ccc(NS(=O)(=O)c3cccs3)cc2)cc1,"inconclusive: 3.98 µM [inhibitor, partial curve]"
14,O=C(CN1C(=O)NC2(CCCCCC2)C1=O)NCCc1ccc(F)cc1,inactive
15,COc1ccc(C(=O)NC(=S)Nc2ccc(CN3CCOCC3)cc2)cc1OC,inactive
16,CC(C)N(C(=O)[C@H]1CC(CC(=O)NCc2cccc(C(F)(F)F)c2)C(=O)N2CCc3c([nH]c4ccccc34)[C@]12C)C(C)C (stereo partly specified),"inconclusive: 31.6 µM [inhibitor, single point]"
17,COc1ccc(/C=N/Nc2cc(C)nc3ccc(OC)cc23)c(OC)c1,inactive
18,COc1ccc(CC2c3cc(OC)c(OC)cc3CC[N+]2(C)CCC(=O)OCCCCCOC(=O)CC[N+]2(C)CCc3cc(OC)c(OC)cc3C2Cc2ccc(OC)c(OC)c2)cc1OC (stereo unspecified),active: 10 µM
19,CCCCOC(=O)/C(=C/c1cn(C)c2ccccc12)NC(=O)c1ccc(OC)cc1,inactive
20,COc1ccc(NC(C#N)c2ccccc2OCc2ccccc2)cc1 (stereo unspecified),"inconclusive: 8.91 µM [inhibitor, partial curve, poor fit]"
21,CC(C)C[C@@H](C(=O)NCC1CCCO1)N1C(=O)N2CCc3c([nH]c4ccccc34)[C@@]2(C)C1=O (stereo partly specified),inactive
22,FC(F)(F)c1ccccc1NC(=S)N1CCc2ccccc2C1,"inconclusive: 11.2 µM [inhibitor, partial curve, poor fit]"
23,CCOc1ccc(NC(=O)N2CCN(Cc3ccc4c(c3)OCO4)CC2)cc1,inactive
24,O=C1CC(c2ccsc2)c2cc3c(cc2N1)OCCO3 (stereo unspecified),"inconclusive: 10 µM [inhibitor, partial curve, poor fit]"

# 4 compounds picked at random from the list so far, as already listed:
row,SMILES,Potency
4,Cc1c([N+](=O)[O-])cnc(Sc2ccccc2)c1[N+](=O)[O-],active: 8.91 µM
2,O=C(NCC(c1ccco1)N1CCN(c2ccccc2F)CC1)c1ccc2c(c1)OCO2 (stereo unspecified),"inconclusive: 12.6 µM [inhibitor, single point]"
13,COc1ccc(/C=N/NC(=O)c2ccc(NS(=O)(=O)c3cccs3)cc2)cc1,"inconclusive: 3.98 µM [inhibitor, partial curve]"
3,Cc1ccnc(NS(=O)(=O)c2ccc(NC(=O)CN3C(=O)c4ccccc4S3(=O)=O)cc2)n1,inactive

# Additional structures:

row,SMILES,Potency
1,O=c1[nH]cc(N=Cc2cc(Cl)cc(Cl)c2O)c(=O)[nH]1,inactive
2,Cc1nc(NC(=O)CCN2C(=O)C3CC=CCC3C2=O)sc1C (stereo unspecified),inactive
3,CC1CCN(c2nc3ccc(C(=O)NCCCN4CCCCC4)cc3s2)CC1,"inconclusive: 11.2 µM [inhibitor, single point]"
4,O=C(CCN1C(=O)C2CCCCC2C1=O)Nc1nc2c(F)cc(F)cc2s1 (stereo unspecified),inactive
5,N#CC1(CCCN2CCCCC2)c2ccccc2CCc2ccccc21,"inconclusive: 11.2 µM [inhibitor, single point]"
6,COc1ccccc1N(C)S(=O)(=O)c1ccc(C(=O)Nc2cc(OC)c(OC)c(OC)c2)cc1,"inconclusive: 25.1 µM [inhibitor, single point]"
7,CC(Nc1ccc(Cl)cc1)C(=O)NN (stereo unspecified),"inconclusive: 3.16 µM [inhibitor, partial curve]"
8,NS(=O)(=O)c1ccc(CCN2C(=O)/C(=C\c3ccc(Cl)cc3)SC2=S)cc1,"inconclusive: 1.12 µM [inhibitor, full curve, poor fit]"
9,COc1cccc(NC(=O)c2ccc3c(c2)N(C)CCS3)c1,"inconclusive: 12.6 µM [inhibitor, single point]"
10,O=C(CSc1ncnc2sccc12)Nc1ccccc1F,inactive
11,CC1CCCCN1C(=O)COC(=O)/C=C/c1ccc2ccccc2n1 (stereo unspecified),"inconclusive: 20 µM [inhibitor, single point]"
12,Oc1c(Br)cc(Br)cc1C=Nc1ccc2c(c1)OCCO2,inactive
13,Cc1c(/N=C(\[O-])Nc2ccc(Br)cc2)sn[n+]1C,"inconclusive: 8.91 µM [inhibitor, single point]"
14,Cc1ccc(CNC(=O)CCS(=O)(=O)c2ccc3c(c2)CC(C)N3C(=O)C2CC2)cc1 (stereo unspecified),"inconclusive: 28.2 µM [inhibitor, single point]"
15,Cc1c(C(=O)NCc2ccoc2)oc2ccc3c(c12)C(=O)CC(C)(C)O3,inactive
16,Cc1cc(C)cc(-n2c(C)cc(/C=N/NC(=O)c3cccc([N+](=O)[O-])c3C)c2C)c1,inactive
17,Cc1c(C#N)c(O)n(CCO)c(=O)c1N=Nc1ccc2c(c1)COC2=O,inactive
18,O=C(CN1C(=O)CCC1=O)Nc1nc(-c2nc3ccccc3s2)cs1,"inconclusive: 10 µM [inhibitor, partial curve, poor fit]"
19,COc1ccc(NC(C)C(=O)Nc2cccc(S(=O)(=O)N3CCOCC3)c2)cc1OC (stereo unspecified),"inconclusive: 28.2 µM [inhibitor, single point]"
20,CCN(c1cccc(C)c1)S(=O)(=O)c1ccc(-c2cc(C)no2)s1,"inconclusive: 2.82 µM [inhibitor, partial curve, poor fit]"
21,CS(=O)(=O)Nc1ccc(C2=NN(S(=O)(=O)c3ccc(F)cc3)C(c3ccco3)C2)cc1 (stereo unspecified),"inconclusive: 11.2 µM [inhibitor, partial curve]"
22,CCSC1=NC(C)(C)C=C(C)N1,inactive
23,CCC(=O)N(CCc1ccc(S(N)(=O)=O)cc1)C1CC(=O)N(c2ccc(OC)cc2)C1=O (stereo unspecified),inactive
